Reference: the supplement of paper PMC6411743
± gives the standard deviation of the averaged measurements. The entries are a selection whose mix differs from that of the whole data set.

Amino acid sequences for entries named in this document (tags omitted). A change or cut given only in a name is not applied to a line headed by its entry.
UniProt O75427: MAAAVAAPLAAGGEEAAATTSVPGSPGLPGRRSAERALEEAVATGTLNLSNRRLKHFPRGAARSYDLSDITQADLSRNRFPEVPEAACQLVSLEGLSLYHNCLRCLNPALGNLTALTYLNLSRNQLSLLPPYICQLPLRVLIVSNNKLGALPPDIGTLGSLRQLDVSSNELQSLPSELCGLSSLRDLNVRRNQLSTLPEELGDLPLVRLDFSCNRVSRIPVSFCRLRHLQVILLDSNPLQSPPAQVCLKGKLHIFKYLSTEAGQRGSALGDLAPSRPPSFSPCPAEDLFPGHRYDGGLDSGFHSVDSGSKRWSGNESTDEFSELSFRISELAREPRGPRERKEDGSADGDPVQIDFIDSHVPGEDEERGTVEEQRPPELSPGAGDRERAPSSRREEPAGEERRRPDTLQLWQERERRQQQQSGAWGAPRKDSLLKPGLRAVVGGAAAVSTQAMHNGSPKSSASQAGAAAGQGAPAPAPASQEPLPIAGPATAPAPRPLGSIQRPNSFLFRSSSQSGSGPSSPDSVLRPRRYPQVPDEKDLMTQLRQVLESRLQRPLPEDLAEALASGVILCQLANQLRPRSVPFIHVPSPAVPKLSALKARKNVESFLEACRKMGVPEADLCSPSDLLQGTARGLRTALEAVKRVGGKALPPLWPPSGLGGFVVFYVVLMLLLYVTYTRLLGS
UniProt Q96CD2: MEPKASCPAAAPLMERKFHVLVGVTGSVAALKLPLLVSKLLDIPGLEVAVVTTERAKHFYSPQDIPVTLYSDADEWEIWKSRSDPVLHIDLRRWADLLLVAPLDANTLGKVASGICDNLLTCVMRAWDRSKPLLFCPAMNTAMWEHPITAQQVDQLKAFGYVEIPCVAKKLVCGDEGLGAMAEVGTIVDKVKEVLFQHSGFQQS
UniProt Q9UBQ5, whole entry: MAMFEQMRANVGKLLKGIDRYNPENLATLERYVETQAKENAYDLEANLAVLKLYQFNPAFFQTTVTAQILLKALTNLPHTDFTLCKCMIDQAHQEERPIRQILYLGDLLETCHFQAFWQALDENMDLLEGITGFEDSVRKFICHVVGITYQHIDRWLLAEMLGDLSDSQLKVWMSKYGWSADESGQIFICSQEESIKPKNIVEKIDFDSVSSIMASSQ
UniProt Q7Z6Z7, whole entry: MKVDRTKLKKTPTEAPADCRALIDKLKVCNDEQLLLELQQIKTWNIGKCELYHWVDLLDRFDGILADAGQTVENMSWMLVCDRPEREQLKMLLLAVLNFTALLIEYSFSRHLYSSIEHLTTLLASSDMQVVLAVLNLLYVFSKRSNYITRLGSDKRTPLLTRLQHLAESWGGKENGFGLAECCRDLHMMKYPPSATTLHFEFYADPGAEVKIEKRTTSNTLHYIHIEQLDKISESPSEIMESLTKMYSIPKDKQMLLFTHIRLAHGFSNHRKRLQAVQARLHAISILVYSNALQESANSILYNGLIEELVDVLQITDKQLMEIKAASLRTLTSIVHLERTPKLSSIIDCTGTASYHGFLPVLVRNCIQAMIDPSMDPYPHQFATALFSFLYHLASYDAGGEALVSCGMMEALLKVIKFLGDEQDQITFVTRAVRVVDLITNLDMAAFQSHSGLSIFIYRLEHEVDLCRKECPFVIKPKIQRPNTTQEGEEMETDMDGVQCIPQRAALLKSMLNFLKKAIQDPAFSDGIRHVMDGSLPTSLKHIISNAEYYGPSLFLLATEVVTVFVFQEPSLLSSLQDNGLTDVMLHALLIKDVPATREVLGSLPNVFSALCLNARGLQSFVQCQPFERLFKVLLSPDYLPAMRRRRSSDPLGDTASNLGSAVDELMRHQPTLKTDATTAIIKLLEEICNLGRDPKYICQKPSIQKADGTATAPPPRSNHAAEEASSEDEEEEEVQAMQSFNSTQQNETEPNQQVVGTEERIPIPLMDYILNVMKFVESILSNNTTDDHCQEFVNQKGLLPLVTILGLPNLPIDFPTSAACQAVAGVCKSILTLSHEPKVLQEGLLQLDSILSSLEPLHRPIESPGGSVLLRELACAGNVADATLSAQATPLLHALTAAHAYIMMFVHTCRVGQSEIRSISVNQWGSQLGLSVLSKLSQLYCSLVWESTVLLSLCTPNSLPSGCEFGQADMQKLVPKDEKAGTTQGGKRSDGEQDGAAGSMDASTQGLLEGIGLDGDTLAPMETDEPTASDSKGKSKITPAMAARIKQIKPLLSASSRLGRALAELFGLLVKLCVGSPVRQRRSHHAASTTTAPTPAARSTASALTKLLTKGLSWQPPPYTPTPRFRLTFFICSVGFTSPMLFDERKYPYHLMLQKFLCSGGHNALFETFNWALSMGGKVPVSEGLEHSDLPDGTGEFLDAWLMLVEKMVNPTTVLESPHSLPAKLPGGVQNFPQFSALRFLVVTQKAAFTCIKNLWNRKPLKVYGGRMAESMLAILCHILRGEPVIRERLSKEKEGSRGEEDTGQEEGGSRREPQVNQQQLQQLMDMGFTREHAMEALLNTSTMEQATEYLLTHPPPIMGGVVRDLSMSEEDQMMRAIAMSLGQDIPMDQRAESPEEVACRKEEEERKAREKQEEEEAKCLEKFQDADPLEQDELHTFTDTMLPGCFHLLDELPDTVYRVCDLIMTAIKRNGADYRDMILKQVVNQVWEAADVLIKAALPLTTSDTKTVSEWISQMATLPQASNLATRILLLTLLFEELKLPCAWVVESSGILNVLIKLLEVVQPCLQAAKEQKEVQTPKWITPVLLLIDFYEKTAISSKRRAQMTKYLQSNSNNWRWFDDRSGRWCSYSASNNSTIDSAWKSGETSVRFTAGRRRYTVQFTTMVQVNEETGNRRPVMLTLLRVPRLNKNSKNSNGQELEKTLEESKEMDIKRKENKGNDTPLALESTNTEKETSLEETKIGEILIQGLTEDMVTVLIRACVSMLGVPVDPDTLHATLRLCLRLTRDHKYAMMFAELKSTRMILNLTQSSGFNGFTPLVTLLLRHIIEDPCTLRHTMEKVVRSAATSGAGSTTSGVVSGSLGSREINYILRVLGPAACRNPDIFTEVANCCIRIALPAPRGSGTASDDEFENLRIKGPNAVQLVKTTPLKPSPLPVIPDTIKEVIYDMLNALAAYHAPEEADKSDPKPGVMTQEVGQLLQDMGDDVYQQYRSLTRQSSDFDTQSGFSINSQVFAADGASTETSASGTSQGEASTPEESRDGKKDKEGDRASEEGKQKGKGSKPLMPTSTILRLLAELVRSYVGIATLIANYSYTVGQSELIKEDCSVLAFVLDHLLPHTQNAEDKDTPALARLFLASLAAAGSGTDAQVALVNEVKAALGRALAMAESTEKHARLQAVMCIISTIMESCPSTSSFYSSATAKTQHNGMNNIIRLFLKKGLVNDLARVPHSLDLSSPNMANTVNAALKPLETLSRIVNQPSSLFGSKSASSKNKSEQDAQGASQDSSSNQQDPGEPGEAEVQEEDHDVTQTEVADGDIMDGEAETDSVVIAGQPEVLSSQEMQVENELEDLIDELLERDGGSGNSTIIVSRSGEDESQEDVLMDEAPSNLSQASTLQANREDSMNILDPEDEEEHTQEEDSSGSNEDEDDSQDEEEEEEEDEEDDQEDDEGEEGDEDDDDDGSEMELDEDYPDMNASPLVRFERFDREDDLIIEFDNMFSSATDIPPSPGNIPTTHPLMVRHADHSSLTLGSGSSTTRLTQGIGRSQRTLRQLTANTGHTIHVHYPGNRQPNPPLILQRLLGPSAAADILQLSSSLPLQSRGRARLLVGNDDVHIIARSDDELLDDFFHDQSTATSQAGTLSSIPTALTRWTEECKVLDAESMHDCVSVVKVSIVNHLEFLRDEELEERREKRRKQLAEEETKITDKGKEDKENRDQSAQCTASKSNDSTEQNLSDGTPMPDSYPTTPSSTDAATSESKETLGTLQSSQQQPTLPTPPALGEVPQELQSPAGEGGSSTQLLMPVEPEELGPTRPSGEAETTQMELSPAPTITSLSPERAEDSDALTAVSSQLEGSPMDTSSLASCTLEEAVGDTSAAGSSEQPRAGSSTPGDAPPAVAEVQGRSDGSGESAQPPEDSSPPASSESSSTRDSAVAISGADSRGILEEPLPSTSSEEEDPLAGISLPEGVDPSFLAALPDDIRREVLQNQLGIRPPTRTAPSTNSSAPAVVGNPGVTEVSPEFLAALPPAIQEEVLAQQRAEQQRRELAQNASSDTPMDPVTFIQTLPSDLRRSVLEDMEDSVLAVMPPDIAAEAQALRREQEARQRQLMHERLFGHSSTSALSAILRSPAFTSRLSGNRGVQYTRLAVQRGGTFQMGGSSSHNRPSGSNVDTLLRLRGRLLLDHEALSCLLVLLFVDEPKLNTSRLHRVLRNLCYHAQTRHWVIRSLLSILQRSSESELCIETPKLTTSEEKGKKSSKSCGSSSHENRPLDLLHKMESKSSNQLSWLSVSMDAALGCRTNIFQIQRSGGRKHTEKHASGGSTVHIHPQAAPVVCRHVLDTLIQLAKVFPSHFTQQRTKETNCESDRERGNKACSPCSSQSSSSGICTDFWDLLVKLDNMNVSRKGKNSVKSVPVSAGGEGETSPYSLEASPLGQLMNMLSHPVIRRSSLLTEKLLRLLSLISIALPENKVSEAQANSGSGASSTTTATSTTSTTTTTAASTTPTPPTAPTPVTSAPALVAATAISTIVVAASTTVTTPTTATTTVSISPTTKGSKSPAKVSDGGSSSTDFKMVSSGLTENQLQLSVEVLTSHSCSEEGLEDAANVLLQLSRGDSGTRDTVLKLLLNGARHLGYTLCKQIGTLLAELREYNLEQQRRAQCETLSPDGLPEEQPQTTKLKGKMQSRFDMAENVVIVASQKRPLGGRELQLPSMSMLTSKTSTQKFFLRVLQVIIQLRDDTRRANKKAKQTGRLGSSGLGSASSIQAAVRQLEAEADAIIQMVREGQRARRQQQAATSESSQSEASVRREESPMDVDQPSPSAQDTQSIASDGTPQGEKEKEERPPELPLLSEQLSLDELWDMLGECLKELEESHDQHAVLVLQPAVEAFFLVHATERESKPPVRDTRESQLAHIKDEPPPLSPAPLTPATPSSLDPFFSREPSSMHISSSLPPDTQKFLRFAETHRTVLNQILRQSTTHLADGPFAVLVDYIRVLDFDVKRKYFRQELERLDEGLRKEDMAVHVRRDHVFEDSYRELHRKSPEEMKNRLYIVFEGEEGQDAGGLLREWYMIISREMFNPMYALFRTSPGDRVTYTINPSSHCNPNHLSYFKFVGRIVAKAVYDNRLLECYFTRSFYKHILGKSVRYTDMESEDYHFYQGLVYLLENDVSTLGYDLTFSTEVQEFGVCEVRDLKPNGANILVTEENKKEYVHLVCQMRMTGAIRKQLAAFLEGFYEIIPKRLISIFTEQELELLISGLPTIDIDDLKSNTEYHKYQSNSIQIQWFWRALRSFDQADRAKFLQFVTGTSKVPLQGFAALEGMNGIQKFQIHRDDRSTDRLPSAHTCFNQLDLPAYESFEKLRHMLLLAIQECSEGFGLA
UniProt P52429: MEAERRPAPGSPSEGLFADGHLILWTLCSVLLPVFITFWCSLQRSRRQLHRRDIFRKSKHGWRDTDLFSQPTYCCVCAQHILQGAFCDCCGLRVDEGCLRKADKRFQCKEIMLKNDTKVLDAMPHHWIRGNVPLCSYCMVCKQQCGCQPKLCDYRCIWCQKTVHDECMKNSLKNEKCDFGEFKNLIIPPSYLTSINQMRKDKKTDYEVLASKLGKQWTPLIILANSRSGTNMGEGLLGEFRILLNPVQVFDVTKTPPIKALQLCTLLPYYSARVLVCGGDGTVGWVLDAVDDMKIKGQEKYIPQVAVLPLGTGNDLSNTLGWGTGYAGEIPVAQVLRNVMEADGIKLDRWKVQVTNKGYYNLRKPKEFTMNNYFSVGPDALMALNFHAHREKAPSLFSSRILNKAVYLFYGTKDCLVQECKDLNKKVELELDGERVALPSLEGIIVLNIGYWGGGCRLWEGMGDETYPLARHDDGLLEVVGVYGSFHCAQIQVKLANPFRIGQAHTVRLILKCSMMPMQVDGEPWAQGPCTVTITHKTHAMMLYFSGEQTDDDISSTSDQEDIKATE
UniProt Q6ZTU2, whole entry: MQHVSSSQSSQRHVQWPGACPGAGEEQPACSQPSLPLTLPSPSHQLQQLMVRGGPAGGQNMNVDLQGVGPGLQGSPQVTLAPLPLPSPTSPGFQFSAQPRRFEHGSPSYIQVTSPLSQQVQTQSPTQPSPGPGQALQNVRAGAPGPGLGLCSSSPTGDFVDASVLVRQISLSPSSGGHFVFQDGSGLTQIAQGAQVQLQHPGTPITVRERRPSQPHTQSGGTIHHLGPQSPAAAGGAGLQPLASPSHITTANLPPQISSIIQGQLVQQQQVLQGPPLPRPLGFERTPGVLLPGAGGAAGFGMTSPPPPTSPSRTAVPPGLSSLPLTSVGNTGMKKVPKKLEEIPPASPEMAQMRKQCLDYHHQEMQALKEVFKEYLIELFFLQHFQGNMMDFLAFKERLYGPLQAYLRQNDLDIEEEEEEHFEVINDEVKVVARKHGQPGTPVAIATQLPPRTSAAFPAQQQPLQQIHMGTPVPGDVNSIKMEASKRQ

Compound: Nc1ncnc2c1ncn2[C@@H]1O[C@H](COP(=O)(O)OP(=O)(O)OP(=O)(O)O)[C@@H](O)[C@H]1O [adenosine triphosphate]
Assay: NP40-soluble protein abundance relative to vehicle (solubility fold change) (ratio); higher = more soluble protein in presence of ATP
Method in brief: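 Eight concentrations, 0.1 to 10 mM, were tested on Jurkat crude lysate for 10 min at room temperature and then 3 min at 37 °C, in three independent experiments. The lysate was solubilised with 0.8% NP40 and benzonase, ultracentrifuged, and the supernatant TMT-labelled for LC-MS/MS. Each value is the fold change against the detergent-processed vehicle in its own replicate, from vsn-normalised intensities.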

Row | Target | NP40-soluble protein abundance (concentration: 1mM) | NP40-soluble protein abundance (concentration: 2mM) | NP40-soluble protein abundance (concentration: 4mM) | NP40-soluble protein abundance (concentration: 6mM) | NP40-soluble protein abundance (concentration: 8mM) | NP40-soluble protein abundance (concentration: 10mM)
1 | J3QKV7 and related entries (UniProt P55039) | 1.05 ± 0.096 | 1.02 ± 0.096 | 1.04 ± 0.076 | 0.984 ± 0.13 | 1.05 ± 0.11 | 1 ± 0.04
2 | G8JL98 and related entries (UniProt Q13569) | 0.9947 ± 0.0047 | 1.03 ± 0.013 | 1 ± 0.046 | 1.01 ± 0.034 | 0.996 ± 0.04 | 1.04 ± 0.04
3 | H0Y8W3 and related entries (UniProt O43566) | 1 ± 0.029 | 1 ± 0.019 | 0.993 ± 0.014 | 0.999 ± 0.017 | 0.969 ± 0.019 | 0.981 ± 0.027
4 | H3BSW6 and related entries (UniProt Q2VPK5) | 0.991 ± 0.074 | 1.04 ± 0.056 | 0.973 ± 0.05 | 0.968 ± 0.046 | 1.02 ± 0.072 | 1.02 ± 0.036
5 | H0YEH1 and related entries (UniProt Q13492) | 0.9472 ± 0.0032 | 0.92 ± 0.011 | 0.925 ± 0.028 | 0.919 ± 0.014 | 0.901 ± 0.048 | 0.928 ± 0.062
6 | H7BXF4 and related entries (UniProt Q9NXE4) | 1.15 ± 0.24 | 1.07 ± 0.19 | 1.1 ± 0.17 | 1.04 ± 0.2 | 1.15 ± 0.14 | 1.14 ± 0.14
7 | H7C5D9 and related entries (UniProt O75427) | 1.26 ± 0.17 | 1.26 ± 0.16 | 1.31 ± 0.16 | 1.33 ± 0.2 | 1.24 ± 0.2 | 1.3 ± 0.17
8 | M0QXZ5 and related entries (UniProt Q96B54) | 0.971 ± 0.039 | 0.963 ± 0.016 | 1.04 ± 0.012 | 1.047 ± 0.0072 | 0.942 ± 0.12 | 0.971 ± 0.062
9 | K7EQJ5 and related entries (UniProt P62841) | 0.893 ± 0.087 | 0.848 ± 0.13 | 0.801 ± 0.16 | 0.803 ± 0.22 | 0.745 ± 0.13 | 0.801 ± 0.17
10 | H3BRQ0 and related entries (UniProt Q96CD2) | 0.96 ± 0.021 | 1 ± 0.021 | 1.02 ± 0.037 | 1.01 ± 0.12 | 0.952 ± 0.067 | 0.939 ± 0.025
11 | J3QR07 and related entries (UniProt Q96MU7) | 0.95 ± 0.07 | 0.91 ± 0.071 | 0.838 ± 0.064 | 0.796 ± 0.05 | 0.697 ± 0.015 | 0.712 ± 0.034
12 | H7BZJ3 and related entries (UniProt P30101) | 0.869 ± 0.14 | 0.995 ± 0.054 | 0.855 ± 0.11 | 0.96 ± 0.11 | 0.963 ± 0.11 | 0.861 ± 0.086
13 | H3BPE7 and related entries (UniProt P35637) | 1.01 ± 0.13 | 1.11 ± 0.076 | 1.1 ± 0.11 | 1.23 ± 0.15 | 1.24 ± 0.066 | 1.18 ± 0.096
14 | K7ERF1 and related entries (UniProt Q9UBQ5) | 1.01 ± 0.043 | 1.03 ± 0.038 | 1.06 ± 0.039 | 1.21 ± 0.074 | 1.27 ± 0.08 | 1.34 ± 0.13
15 | H0YAA2 and related entries (UniProt O43660) | 0.953 ± 0.039 | 0.975 ± 0.027 | 1.05 ± 0.013 | 1.05 ± 0.07 | 1.14 ± 0.024 | 1.16 ± 0.043
16 | H3BRL0 and related entries (UniProt Q9BXC9) | 0.997 ± 0.094 | 0.952 ± 0.056 | 1.06 ± 0.044 | 1.01 ± 0.016 | 1.02 ± 0.03 | 0.974 ± 0.029
17 | H7C285 and related entries (UniProt O95858) | 1.05 ± 0.062 | 1.04 ± 0.052 | 1.06 ± 0.092 | 0.981 ± 0.028 | 1.06 ± 0.056 | 1.03 ± 0.055
18 | H0YD93 and related entries (UniProt Q8WXA3) | 0.98 ± 0.14 | 1.01 ± 0.092 | 1.02 ± 0.067 | 0.949 ± 0.15 | 0.948 ± 0.042 | 0.966 ± 0.11
19 | H0Y9S9 and related entries (UniProt O43314) | 0.983 ± 0.018 | 0.992 ± 0.046 | 0.988 ± 0.036 | 0.978 ± 0.044 | 1 ± 0.045 | 0.984 ± 0.038
20 | H0Y659 and related entries (UniProt Q7Z6Z7) | 0.971 ± 0.01 | 0.967 ± 0.016 | 0.943 ± 0.012 | 0.938 ± 0.025 | 0.955 ± 0.032 | 0.949 ± 0.043
21 | K7EK07 and related entries (UniProt P84243+K7EK07) | 0.817 ± 0.25 | 0.832 ± 0.13 | 0.827 ± 0.13 | 0.948 ± 0.12 | 0.956 ± 0.036 | 1.02 ± 0.065
22 | J3KPP0 and related entries (UniProt Q9Y6G3) | 1 ± 0.068 | 0.918 ± 0.11 | 0.964 ± 0.12 | 0.947 ± 0.15 | 0.862 ± 0.1 | 0.841 ± 0.18
23 | J3KN32 and related entries (UniProt Q9UKL0) | 0.979 ± 0.022 | 0.987 ± 0.036 | 0.987 ± 0.07 | 1.03 ± 0.051 | 1 ± 0.07 | 1.01 ± 0.036
24 | I3L112 and related entries (UniProt P52429) | 1.04 ± 0.075 | 1.052 ± 0.0071 | 1.15 ± 0.1 | 1.01 ± 0.036 | 1.16 ± 0.18 | 1.19 ± 0.17
25 | H0YEL0 and related entries (UniProt O14893) | 1.03 ± 0.051 | 1 ± 0.081 | 1.02 ± 0.058 | 1 ± 0.13 | 1.01 ± 0.099 | 1.03 ± 0.084
26 | H9KV84 and related entries (UniProt Q6ZTU2) | 0.868 ± 0.074 | 0.955 ± 0.096 | 0.997 ± 0.038 | 0.953 ± 0.27 | 0.913 ± 0.0046 | 0.855 ± 0.14
27 | H0YJI2 and related entries (UniProt Q15643) | 0.974 ± 0.041 | 0.974 ± 0.045 | 0.958 ± 0.034 | 0.994 ± 0.042 | 0.942 ± 0.028 | 0.951 ± 0.018
28 | J3QLS3 and related entries (UniProt Q9Y2R9) | 0.985 ± 0.1 | 0.888 ± 0.071 | 0.931 ± 0.12 | 0.92 ± 0.18 | 0.952 ± 0.13 | 0.816 ± 0.12
29 | I3L4B6 and related entries (UniProt Q67FW5) | 0.943 ± 0.033 | 1.05 ± 0.075 | 0.963 ± 0.1 | 0.931 ± 0.0082 | 1.04 ± 0.084 | 1.02 ± 0.013
30 | K7EKM7 (UniProt O75264) | 0.917 ± 0.25 | 0.895 ± 0.14 | 0.938 ± 0.32 | 0.94 ± 0.28 | 0.797 ± 0.25 | 0.836 ± 0.26

Full records as entered above. Order of values: NP40-soluble protein abundance (concentration: 1mM)	NP40-soluble protein abundance (concentration: 2mM)	NP40-soluble protein abundance (concentration: 4mM)	NP40-soluble protein abundance (concentration: 6mM)	NP40-soluble protein abundance (concentration: 8mM)	NP40-soluble protein abundance (concentration: 10mM)
H0YEH1 and related entries (UniProt Q13492) as listed: 0.9472 ± 0.0032	0.92 ± 0.011	0.925 ± 0.028	0.919 ± 0.014	0.901 ± 0.048	0.928 ± 0.062
K7EK07 and related entries (UniProt P84243+K7EK07) as listed: 0.817 ± 0.25	0.832 ± 0.13	0.827 ± 0.13	0.948 ± 0.12	0.956 ± 0.036	1.02 ± 0.065
